# Laboratory results: patent US8124637B2, “Anthra [1, 2-d]imidazole-6,11-dione derivatives, preparation method and application thereof” (National Defense Medical Center, priority 2010, dated 2012)
# No dose or concentration is given here for some results.
# Tested on: 60 kinds of different human cancer cells
# Assay: NCI 60-cell drug screen, one dose, whole panel
# Format: cell-based
# Conditions: over the tested cell lines, 1.00E−5 Molar
# Protocol: In brief, cellular protein levels were determined after 48 hours of drug exposure by sulforhodamine B colorimetry.
# The screening system in United State National Cancer Institute (NCI) consists of 60 kinds of different human cancer cells, which can be used to assay the growth-inhibiting ability or cell toxicity of a compound against various cancer and tumor at a certain concentration. The NCI had selected 6 compounds synthesized above, and performed cell toxicity assay against 60 kinds of cancer cell strains (Table 2) (DTP Human Tumor Cell Line Screen), in which each compound was assayed at a certain concentration to observe its inhibition ability or cell toxicity against various kinds of cancer and tumor.
SMILES,"Growth Percent, Delta","Growth Percent, Range"
"CCN(CC)Cc1nc2ccc3c(c2[nH]1)C(=O)c1ccccc1C3=O [CL04, 2-((diethylamino)methyl)-1H-anthra[1,2-d]imidazole-6,11-dione]",79.09%,114.93%
"CN(CCc1ccccn1)Cc1nc2ccc3c(c2[nH]1)C(=O)c1ccccc1C3=O [CL07, 2-((N-methyl-2-(pyridin-2-yl)ethanamino)methyl)-1H-anthra[1,2-d]imidazole-6,11-dione]",49.16%,90.83%
"O=C1c2ccccc2C(=O)c2c1ccc1nc(CN3CCCCC3)[nH]c21 [CL16, 2-((piperidin-1-yl)methyl)-1H-anthra[1,2-d]imidazole-6,11-dione]",52.58%,96.91%
"CN1CCN(Cc2nc3ccc4c(c3[nH]2)C(=O)c2ccccc2C4=O)CC1 [CL24, 2-((4-methylpiperazin-1-yl)methyl)-1H-anthra[1,2-d]imidazole-6,11-dione]",73.29%,121.39%
"O=C1c2ccccc2C(=O)c2c1ccc1nc(CN3CCN(c4ccccc4)CC3)[nH]c21 [CL27, 2-((4-phenylpiperazin-1-yl)methyl)-1H-anthra[1,2-d]imidazole-6,11-dione]",47.04%,135.50%
"O=C1c2ccccc2C(=O)c2c1ccc1nc(CN3CCN(c4ccccn4)CC3)[nH]c21 [CL28, 2-((4-(pyridin-2-yl)piperazin-1-yl)methyl)-1H-anthra[1,2-d]imidazole-6,11-dione]",33.73%,70.85%
